Results: publication PMC6921004, “Structural Characterization of Full-Length Human Dehydrodolichyl Diphosphate Synthase Using an Integrative Computational and Experimental Approach” (Biomolecules, 2019)
Results are given in words; binding and its absence hold for the method and conditions named. Some binding calls cover weakened binding; strength is not graded here.

Biological target: Dehydrodolichyl diphosphate synthase (DHDDS), full-length human (human) (UniProt Q86SQ9)
Test: SAXS in-line with SEC; ESRF BM29; ~8 mg/mL, 50 uL on Superdex-200 increase 10/300 GL; Tris-HCl pH 7.5, 150 mM NaCl, 20 mM beta-mercaptoethanol, 0.02% Triton X-100; 20 °C; both purified

B1: Dehydrodolichyl diphosphate synthase (DHDDS), full-length human (enzyme, UniProt Q86SQ9 1-333, looked up)
chain: MSWIKEGELSLWERFCANIIKAGPMPKHIAFIMDGNRRYAKKCQVERQEGHSQGFNKLAETLRWCLNLGILEVTVYAFSIENFKRSKSEVDGLMDLARQKFSRLMEEKEKLQKHGVCIRVLGDLHLLPLDLQELIAQAVQATKNYNKCFLNVCFAYTSRHEISNAVREMAWGVEQGLLDPSDISESLLDKCLYTNRSPHPDILIRTSGEVRLSDFLLWQTSHSCLVFQPVLWPEYTFWNLFEAILQFQMNHSVLQKARDMYAEERKRQQLERDQATVTEQLLREGLQASGDAQLRRTRLHKLSARREERVQGFLQALELKRADWLARLGTASA
notes: Dehydrodolichyl diphosphate synthase (DHDDS), human, UniProt Q86SQ9, full length; synthesized gene cloned into pET-32b between NdeI and BamHI; Expressed as a TRX fusion with a 6xHis-tag and a TEV site; the tag and the fusion were removed by TEV protease; also called hDHDDS; human DHDDS; source: E. coli T7 express, purified (TALON-Superflow, TEV cleavage, second TALON-Superflow, Superdex-200 SEC)
- binding: binds
